Measured values as given in US20110071141A1, “Pesticidial Condensed-Ring Aryl Compounds” (Bayer CropScience AG, priority 2008, published 2011).
Some entries share one result that the patent states for a list of compounds.

System: Tetranychus urticae
Test: Test on Tetranychus urticae (spray test)
Assay type: in vivo
Conditions: active compound concentration 100 ppm; adult mites on pinto bean sprayed; 7 days
Method: The test solution has been prepared as described in biological test example 1. 50 to 100 adult Tetranychus urticae were placed on pinto bean leaves at true leaf stage having two main leaves that had been grown in a pot (6 cm diameter). After 1 day, a generous amount of the test solution which has been diluted with water to the predetermined concentration was sprayed thereto using a spray gun.
After keeping the pot in a green house for 7 days, acaricidal ratio was calculated. 100% means that all the mites have been killed; 0% means that none of the mites have been killed.

CCNC(=O)NC1CCc2cc(C3=NCC(c4cc(Cl)cc(Cl)c4)(C(F)(F)F)C3)ccc21 (stereo not shown) [Example 3-112, 1-{5-[3-(3,5-dichlorophenyl)-3-(trifluoromethyl)-3,4-dihydro-2H-pyrrol-5-yl]-2,3-dihydro-1H-inden-1-yl}-3-ethylurea]
mortality (acaricidal ratio): ≥ 98%
